Some of the results follow.
The targets below were run with Cc1cc(ccc1-c1ccccc1)C(=O)N1CCCN(CC1)C(=O)CCl [compound 10] (assay: probe-labelled cysteine peptide fold change vs DMSO (competition) (log2 fold change); higher = less target engagement (more negative = stronger competition)). Conditions: 10 µM; THP-1; incubation time: 4 h.
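Note: competitive profiling in live THP-1 cells: cysteine peptides tagged with an iodoacetamide desthiobiotin (IA-DTB) probe, intensity after compound treatment relative to DMSO-treated cells.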

By UniProt entry, the sequences of proteins in these tests, tags left out. Where a name states a change or a piece, a line headed by the entry shows the natural chain unless it says otherwise.
UniProt A2RUS2: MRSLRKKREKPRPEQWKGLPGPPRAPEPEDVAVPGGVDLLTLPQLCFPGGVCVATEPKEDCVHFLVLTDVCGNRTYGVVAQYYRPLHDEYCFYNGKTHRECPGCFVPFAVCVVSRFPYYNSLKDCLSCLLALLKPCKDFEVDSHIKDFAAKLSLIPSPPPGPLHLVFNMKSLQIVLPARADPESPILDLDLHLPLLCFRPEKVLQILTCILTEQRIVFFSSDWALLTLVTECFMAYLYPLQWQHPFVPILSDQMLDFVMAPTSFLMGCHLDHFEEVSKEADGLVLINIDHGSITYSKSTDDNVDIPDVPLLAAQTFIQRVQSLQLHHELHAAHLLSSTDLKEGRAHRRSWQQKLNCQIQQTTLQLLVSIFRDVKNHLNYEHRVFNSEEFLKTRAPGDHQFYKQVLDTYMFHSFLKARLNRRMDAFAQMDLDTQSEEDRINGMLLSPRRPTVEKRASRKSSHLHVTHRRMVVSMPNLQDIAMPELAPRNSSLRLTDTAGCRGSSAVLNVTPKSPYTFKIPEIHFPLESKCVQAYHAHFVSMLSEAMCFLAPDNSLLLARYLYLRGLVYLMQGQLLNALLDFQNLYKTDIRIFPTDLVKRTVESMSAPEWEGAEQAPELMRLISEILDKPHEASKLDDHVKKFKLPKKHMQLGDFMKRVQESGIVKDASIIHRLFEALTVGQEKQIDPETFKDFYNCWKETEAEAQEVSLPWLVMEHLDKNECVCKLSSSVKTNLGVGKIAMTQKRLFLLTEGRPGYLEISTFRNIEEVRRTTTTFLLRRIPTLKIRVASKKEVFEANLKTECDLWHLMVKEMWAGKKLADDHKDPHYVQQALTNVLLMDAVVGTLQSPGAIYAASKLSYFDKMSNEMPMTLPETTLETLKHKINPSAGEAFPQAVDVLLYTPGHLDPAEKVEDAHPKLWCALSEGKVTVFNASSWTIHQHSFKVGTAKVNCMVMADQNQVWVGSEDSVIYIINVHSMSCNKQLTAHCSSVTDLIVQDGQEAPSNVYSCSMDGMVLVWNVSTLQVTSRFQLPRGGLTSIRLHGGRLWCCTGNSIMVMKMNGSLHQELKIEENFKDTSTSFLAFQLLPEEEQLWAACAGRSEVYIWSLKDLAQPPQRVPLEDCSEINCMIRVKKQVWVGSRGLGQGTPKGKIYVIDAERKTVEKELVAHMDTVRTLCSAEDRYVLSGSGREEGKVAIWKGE
UniProt Q9UJV9: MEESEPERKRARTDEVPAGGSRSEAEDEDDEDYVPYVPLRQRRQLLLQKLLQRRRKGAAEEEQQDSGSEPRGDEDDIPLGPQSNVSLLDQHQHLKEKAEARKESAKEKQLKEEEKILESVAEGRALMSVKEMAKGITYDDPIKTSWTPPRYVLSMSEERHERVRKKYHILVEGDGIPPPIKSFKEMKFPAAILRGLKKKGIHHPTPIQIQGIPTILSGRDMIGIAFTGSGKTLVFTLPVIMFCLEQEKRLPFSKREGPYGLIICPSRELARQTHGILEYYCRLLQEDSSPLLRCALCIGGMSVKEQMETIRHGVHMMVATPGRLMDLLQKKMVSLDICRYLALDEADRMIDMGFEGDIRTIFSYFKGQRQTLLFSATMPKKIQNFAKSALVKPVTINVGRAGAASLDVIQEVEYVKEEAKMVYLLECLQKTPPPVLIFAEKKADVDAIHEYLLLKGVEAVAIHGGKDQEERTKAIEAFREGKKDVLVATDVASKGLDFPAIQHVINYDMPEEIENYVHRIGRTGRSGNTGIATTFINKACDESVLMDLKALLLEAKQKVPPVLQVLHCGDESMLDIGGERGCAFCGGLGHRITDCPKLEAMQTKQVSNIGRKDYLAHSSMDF
UniProt O00571: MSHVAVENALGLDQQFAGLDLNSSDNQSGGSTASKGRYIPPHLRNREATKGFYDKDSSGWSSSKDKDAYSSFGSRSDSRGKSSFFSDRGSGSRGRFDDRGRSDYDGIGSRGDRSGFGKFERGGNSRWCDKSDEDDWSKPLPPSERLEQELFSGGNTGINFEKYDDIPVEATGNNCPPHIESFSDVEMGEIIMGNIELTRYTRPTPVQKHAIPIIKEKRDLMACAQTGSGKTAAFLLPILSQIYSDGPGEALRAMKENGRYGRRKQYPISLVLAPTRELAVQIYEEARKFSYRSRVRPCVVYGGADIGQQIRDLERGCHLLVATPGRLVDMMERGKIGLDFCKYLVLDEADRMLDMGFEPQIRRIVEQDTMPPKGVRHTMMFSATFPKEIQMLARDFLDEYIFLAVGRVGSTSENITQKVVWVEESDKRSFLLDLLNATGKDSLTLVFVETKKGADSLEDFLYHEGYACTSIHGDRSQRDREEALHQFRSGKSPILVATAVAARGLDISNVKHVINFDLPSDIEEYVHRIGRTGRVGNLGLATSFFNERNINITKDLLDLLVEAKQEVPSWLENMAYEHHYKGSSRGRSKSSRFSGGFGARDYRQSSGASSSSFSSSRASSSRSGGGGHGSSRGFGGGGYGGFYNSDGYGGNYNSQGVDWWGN
UniProt O75064: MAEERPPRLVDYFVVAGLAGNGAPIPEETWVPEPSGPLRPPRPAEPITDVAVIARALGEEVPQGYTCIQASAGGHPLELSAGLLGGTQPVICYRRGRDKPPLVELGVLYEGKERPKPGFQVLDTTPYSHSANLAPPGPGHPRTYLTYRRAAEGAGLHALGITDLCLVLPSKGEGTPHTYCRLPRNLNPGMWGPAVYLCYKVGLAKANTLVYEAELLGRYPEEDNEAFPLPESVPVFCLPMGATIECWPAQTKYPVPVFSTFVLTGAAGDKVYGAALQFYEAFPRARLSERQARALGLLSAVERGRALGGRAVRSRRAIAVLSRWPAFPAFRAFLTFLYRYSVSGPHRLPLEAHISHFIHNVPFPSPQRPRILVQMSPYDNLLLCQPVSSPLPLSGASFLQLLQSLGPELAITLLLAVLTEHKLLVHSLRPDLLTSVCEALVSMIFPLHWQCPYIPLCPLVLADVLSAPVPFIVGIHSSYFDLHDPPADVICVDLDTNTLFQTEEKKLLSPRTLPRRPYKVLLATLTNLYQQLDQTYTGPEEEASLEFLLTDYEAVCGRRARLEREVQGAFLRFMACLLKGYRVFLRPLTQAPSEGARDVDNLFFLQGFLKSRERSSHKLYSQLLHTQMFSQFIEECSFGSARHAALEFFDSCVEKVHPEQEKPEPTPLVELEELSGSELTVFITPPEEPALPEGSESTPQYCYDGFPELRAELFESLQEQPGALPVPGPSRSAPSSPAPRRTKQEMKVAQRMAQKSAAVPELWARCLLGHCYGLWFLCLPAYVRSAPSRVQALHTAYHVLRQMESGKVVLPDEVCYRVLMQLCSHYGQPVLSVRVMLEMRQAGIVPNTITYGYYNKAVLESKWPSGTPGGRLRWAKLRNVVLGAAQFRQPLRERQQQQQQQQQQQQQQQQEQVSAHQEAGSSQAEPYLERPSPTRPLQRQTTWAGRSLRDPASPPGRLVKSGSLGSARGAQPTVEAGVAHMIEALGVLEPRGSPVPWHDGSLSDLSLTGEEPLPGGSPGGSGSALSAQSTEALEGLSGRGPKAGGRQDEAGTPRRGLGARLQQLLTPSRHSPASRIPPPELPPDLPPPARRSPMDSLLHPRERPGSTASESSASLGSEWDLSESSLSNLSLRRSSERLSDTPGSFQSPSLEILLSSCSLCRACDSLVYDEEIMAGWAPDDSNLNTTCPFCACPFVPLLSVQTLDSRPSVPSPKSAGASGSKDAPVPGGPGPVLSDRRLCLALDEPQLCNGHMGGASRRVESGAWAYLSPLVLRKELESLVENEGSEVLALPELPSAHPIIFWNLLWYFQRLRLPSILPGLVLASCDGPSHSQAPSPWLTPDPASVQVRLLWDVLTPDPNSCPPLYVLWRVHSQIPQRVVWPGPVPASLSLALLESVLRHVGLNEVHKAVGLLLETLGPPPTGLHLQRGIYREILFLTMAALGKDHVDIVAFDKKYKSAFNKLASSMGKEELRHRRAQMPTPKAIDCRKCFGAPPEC
UniProt Q8WYQ5: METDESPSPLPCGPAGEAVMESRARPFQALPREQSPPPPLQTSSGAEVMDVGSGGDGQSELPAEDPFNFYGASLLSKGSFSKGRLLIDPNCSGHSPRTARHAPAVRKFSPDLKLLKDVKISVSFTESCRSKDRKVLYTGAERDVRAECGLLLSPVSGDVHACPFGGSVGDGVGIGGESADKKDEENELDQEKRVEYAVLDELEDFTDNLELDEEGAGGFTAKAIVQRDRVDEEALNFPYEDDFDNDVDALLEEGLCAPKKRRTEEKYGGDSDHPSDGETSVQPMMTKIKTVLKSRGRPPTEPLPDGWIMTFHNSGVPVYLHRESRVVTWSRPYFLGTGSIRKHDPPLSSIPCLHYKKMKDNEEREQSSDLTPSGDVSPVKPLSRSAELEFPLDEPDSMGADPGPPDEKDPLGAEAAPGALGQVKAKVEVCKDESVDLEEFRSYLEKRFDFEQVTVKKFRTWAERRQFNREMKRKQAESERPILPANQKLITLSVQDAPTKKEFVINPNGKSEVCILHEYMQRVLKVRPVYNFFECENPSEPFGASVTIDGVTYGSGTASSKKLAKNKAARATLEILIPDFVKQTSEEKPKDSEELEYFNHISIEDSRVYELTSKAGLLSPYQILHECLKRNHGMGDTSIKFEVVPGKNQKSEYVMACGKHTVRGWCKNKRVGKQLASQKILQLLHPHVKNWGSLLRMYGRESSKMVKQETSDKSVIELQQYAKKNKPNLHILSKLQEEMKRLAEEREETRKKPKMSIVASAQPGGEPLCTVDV
UniProt Q9H4E7, whole entry, looked up: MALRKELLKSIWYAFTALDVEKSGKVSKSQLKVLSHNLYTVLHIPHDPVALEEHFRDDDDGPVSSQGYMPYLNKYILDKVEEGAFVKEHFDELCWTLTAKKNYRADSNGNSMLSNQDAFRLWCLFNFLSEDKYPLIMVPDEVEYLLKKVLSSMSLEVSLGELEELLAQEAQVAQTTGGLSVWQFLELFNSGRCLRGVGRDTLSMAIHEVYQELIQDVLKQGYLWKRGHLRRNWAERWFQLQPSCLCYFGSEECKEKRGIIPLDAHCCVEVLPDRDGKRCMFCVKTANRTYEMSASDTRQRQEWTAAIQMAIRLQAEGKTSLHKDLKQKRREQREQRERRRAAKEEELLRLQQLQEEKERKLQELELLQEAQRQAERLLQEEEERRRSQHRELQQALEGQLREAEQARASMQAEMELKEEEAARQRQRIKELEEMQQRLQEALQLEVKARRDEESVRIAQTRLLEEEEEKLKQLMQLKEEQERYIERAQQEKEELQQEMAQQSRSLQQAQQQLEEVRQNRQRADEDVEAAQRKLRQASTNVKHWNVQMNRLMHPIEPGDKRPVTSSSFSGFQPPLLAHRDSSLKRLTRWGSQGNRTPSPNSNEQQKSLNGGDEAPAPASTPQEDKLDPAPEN
UniProt Q16698: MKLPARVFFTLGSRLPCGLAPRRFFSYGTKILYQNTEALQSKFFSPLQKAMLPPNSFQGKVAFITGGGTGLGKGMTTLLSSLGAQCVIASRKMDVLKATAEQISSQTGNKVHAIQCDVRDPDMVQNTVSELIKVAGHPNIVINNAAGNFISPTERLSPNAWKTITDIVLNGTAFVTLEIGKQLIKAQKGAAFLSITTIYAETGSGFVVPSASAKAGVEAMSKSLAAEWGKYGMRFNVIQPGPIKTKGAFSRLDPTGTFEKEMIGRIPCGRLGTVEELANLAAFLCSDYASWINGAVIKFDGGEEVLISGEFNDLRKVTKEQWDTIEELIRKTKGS
UniProt Q92499: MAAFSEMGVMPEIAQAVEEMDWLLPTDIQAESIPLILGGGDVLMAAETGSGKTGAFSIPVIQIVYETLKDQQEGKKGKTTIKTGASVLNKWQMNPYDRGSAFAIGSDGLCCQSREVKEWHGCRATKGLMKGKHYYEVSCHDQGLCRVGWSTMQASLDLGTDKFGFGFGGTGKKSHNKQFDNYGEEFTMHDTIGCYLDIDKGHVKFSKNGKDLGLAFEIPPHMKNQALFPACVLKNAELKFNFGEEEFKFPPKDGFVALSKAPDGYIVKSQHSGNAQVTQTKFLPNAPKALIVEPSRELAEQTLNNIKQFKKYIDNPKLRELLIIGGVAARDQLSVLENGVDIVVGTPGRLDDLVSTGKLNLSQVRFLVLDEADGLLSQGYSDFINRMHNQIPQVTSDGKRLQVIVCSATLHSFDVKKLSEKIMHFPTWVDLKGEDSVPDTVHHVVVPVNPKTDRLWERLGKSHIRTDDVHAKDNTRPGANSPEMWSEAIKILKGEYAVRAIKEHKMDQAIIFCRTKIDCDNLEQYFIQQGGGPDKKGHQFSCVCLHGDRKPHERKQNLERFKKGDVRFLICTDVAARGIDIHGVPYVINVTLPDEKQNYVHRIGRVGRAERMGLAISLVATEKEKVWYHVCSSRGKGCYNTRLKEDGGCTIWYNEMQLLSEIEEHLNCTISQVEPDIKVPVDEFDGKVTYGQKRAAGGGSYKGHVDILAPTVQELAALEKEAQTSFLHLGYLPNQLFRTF

Target	probe-labelled cysteine peptide fold change
DENND3_A2RUS2_1094_DTSTSFLAFQLLPEEEQLWAACAGR (UniProt A2RUS2)	1.07
DDX19A_Q9NUU7_166_YPQCLCLSPTYELALQTGK (UniProt Q9NUU7)	0.128
DHRS7_Q9Y394_147_SLCMDTSLDVYRK (UniProt Q9Y394)	-0.112
DGKA_P23743_253_ALPCEVSTYAK (UniProt P23743)	-0.145
DDX10_Q13206_392_GLDFPAVNWVLQFDCPEDANTYIHR (UniProt Q13206)	0.0564
DDB1_Q16531_260_QSTIVCHNR (UniProt Q16531)	0.123
DDX41_Q9UJV9_338_KMVSLDICR (UniProt Q9UJV9)	-0.119
DENND3_A2RUS2_1174_TLCSAEDRYVLSGSGR (UniProt A2RUS2)	0.153
DDX41_Q9UJV9_568_QKVPPVLQVLHCGDESMLDIGGER (UniProt Q9UJV9)	-0.0733
DDX3X_O00571_223_RDLMACAQTGSGK (UniProt O00571)	-0.107
DDX58_O95786_278_TFVSLLICEHHLK (UniProt O95786)	0.188
DDX27_Q96GQ7_357_LIDHLHNCPSFHLSSIEVLILDEADR (UniProt Q96GQ7)	0.376
DDHD2_O94830_470_ESEFCSSSNTR (UniProt O94830)	-0.28
DDX39B_Q13838_239_EIRPVCR (UniProt Q13838)	-0.102
DENND4B_O75064_652_HAALEFFDSCVEK (UniProt O75064)	0.0262
DGCR8_Q8WYQ5_352_KHDPPLSSIPCLHYK (UniProt Q8WYQ5)	-0.0269
DENND4B_O75064_815_VVLPDEVCYR (UniProt O75064)	-0.158
DENND4A_Q7Z401_648_DASLAFFDDCVDK (UniProt Q7Z401)	-0.0249

Target	probe-labelled cysteine peptide fold change
DEF6_Q9H4E7_246+253_WFQLQPSCLCYFGSEECK (UniProt Q9H4E7)	0.124
DDX3X_O00571_317_GCHLLVATPGR (UniProt O00571)	0.139
DECR1_Q16698_86_GMTTLLSSLGAQCVIASR (UniProt Q16698)	0.251
DDX1_Q92499_519_TKIDCDNLEQYFIQQGGGPDKK (UniProt Q92499)	-0.155
DDX5_P17844_320_DYIHINIGALELSANHNILQIVDVCHDVEK (UniProt P17844)	0.141
DDX21_Q9NR30_291_LSVACFYGGTPYGGQFER (UniProt Q9NR30)	0.173
DEF6_Q9H4E7_266_GIIPLDAHCCVEVLPDRDGKR (UniProt Q9H4E7)	0.106
DGCR8_Q8WYQ5_657_SEYVMACGK (UniProt Q8WYQ5)	-0.101
DDX1_Q92499_542_GHQFSCVCLHGDR (UniProt Q92499)	0.0323
DDX5_P17844_170_TLSYLLPAIVHINHQPFLERGDGPICLVLAPTR (UniProt P17844)	0.236
DECR1_Q16698_116_VHAIQCDVR (UniProt Q16698)	-0.122
DDX3Y_O15523_62_DSSGWSCSK (UniProt O15523)	-0.368
DDX41_Q9UJV9_568_VPPVLQVLHCGDESMLDIGGER (UniProt Q9UJV9)	-0.0594
DDX24_Q9GZR7_467_CLVVDEADR (UniProt Q9GZR7)	0.0794
DECR2_Q9NUI1_22_HLFCPDLLR (UniProt Q9NUI1)	-0.0692
DDX17_Q92841_584_TTSSANNPNLMYQDECDRR (UniProt Q92841)	0.428
DDX50_Q9BQ39_242_LSVACFYGGTSYQSQINHIR (UniProt Q9BQ39)	0.333
